Primary screen of a compound library

Amino acid sequences for entries named in this document (tags omitted).
UniProt E9BF75, entry or part of it: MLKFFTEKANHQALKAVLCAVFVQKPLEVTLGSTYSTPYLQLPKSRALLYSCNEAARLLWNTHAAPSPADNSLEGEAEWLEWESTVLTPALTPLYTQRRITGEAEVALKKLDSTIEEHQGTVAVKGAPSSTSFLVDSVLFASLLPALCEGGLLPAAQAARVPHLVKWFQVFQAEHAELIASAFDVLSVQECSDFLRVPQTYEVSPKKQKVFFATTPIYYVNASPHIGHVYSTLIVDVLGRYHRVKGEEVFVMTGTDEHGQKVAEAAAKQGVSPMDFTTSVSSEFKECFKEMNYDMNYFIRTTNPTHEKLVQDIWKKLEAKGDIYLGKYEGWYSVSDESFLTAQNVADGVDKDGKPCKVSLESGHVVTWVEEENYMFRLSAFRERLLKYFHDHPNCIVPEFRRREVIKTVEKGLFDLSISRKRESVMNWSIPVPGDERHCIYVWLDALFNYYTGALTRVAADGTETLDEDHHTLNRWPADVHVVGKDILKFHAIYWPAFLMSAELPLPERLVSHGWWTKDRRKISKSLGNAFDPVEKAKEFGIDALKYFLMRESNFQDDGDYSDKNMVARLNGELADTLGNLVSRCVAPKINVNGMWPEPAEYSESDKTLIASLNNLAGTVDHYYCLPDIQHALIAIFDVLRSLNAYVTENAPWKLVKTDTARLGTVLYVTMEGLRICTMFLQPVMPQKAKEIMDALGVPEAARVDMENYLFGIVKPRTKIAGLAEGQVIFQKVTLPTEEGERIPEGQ

The values are deposited in ChEMBL (CHEMBL3988442, “University of Dundee, Small-Polar-MMV Screening Library” (2021)).

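Methionyl-tRNA synthetase (putative), Leishmania donovani (UniProt E9BF75). Primary screen of methionyl-tRNA synthetase; the read-out is not stated. The test concentration is not given. Values are per cent inhibition. About 68,000 compounds were tested under these conditions; 0.035% (about 24) showed 50% or more at least once.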

All values are in %.
The record does not define 0% and 100%; most values in the screen are far below 50% and negative numbers occur (in some assays of this library far below -100).
The compounds are a random part of those screened.

* COCCNS(=O)(=O)c1c(C)sc2ccccc12 : 11.02%
* CC(C)CCc1cc(C(=O)O)nc2[nH]c(=O)[nH]c(=O)c12 : 9.14%
* Cc1cc(C(=O)N2CCn3cc(CN4CCCC4)nc3C2)no1 : 13.93%
* CCc1ncc2c(n1)CN(c1cc(N3CCN(C)CC3)nc(N)n1)C2 : 7.563%
* Cc1nc(CN2CCN(S(=O)(=O)N3CCCCC3)CC2)oc1C : 16.48%
* CS(=O)(=O)N1CCC(NC(=O)COc2ccccc2Cl)CC1 : 17.49%
* COCCNC(=O)CN(C)C(C)c1nc(C)no1 (stereo not shown) : 17.13%
* NC(=O)CCNC(=O)NCC1(c2ccccc2Cl)CCC1 : 16.62%
* COc1ccc(C[C@H]2CN(c3cc(OC)ncn3)CC[C@H]2OC)cc1 : 10.75%
* O=C(Nc1ccc(I)cc1C(=O)NCCN1CCOCC1)c1ccco1 : 5.775%
* Cc1ccc(S(=O)(=O)NC(C)(C)CN)c(F)c1 : 3.621%
* O=C(c1cc[nH]n1)N1CCCC1C1CCN(Cc2ccccc2)CC1 (stereo not shown) : 14.79%
* CN(Cc1ccco1)C[C@@H]1OC[C@H]2CN(Cc3nccs3)CC[C@H]21 : 4.301%
* O=C(NC1CC1)C1=CC2(CCN(CCO)CC2)c2ccccc21 : 10.08%
* O=C(c1cn(CC(=O)N2CCCC2)c2ccccc12)C1CC1 : 5.412%
* CCOCC(=O)N1C[C@@H]2CC[C@H](C1)N(Cc1ccccn1)C2=O : 1.423%
* CC(C)Cn1nc2ccc(S(=O)(=O)N3CCC(C)CC3)cn2c1=O : 14.36%
* CN1CCN(C(=O)Cc2ccccn2)Cc2cccnc21 : 14.52%
* COc1ccccc1-n1nc(-c2ccco2)n(CC(N)=O)c1=O : 9.207%
* Cc1cc(C(=O)N2CCCC(c3noc(C)n3)C2)[nH]n1 (stereo not shown) : 2.347%
* Cc1nc(CN2CCN(C)C(=O)C23CCN(CC2CCCC2)CC3)cs1 : 10.99%
* COCC1N(S(=O)(=O)c2cn(C)cn2)[C@H]2CC[C@]1(O)CC2 (stereo partly shown) : 15.62%
* Cc1cc(C)n(C2CN(C(=O)CN3C(=O)CSc4ccccc43)C2)n1 : 15.97%
* COCCOCC(=O)Nc1ccc(C)cc1Br : 15.21%
* Cc1ccc(NC(=O)N(C)Cc2cnn(C)c2)cc1OCC(F)F : 14.38%
* CC(=O)Oc1ccnc(C(F)(F)F)c1C(C)=O : 12.03%
* O=C(NCC1CCCO1)c1csc(Cc2ccccc2)n1 (stereo not shown) : 4.545%
* O=C1NCC[C@]12CN(Cc1ccncc1)C[C@H]2c1ccccc1 : 8.219%
* Cc1nc(NC(=O)CCc2c(C)nc3cc(O)nn3c2C)sc1C : 31.05%
* CS(=O)(=O)NC[C@]12COC[C@H]1CN(C(=O)C1CCCCC1)C2 : -6.397%
* CCOc1nnc(CN2CCN(CCOC)CC2)s1 : 4.775%
* CC(C)C(=O)N1CCN(CC(O)c2cc(Cl)ccc2Cl)CC1 (stereo not shown) : 5.645%
* CS(=O)(=O)N[C@H]1CN(C(=O)c2cscn2)[C@@H]2CCCO[C@H]12 : 11.33%
* Cc1noc(C)c1C(=O)N1CCC(c2cc3cnccc3[nH]2)CC1 : 8.721%
* COc1ccc(-n2nnc(C(=O)NCC3CCCCC3)n2)cc1 : 5.036%
* CN(C)CCn1c2c(ccc1=O)CCN(Cc1ccncc1)CC2 : -2.198%
* CC(=O)N1CCN(c2cc(C)ncn2)CC(CO)C1 (stereo not shown) : 14.6%
* CC(C)=CCCN1CCN(C)C2(CCC(=O)N(C)CC2)C1 (stereo not shown) : 5.177%
* CC(C)(C)CN1CCCC12CCN(S(=O)(=O)c1ccccc1)C2 (stereo not shown) : 11.44%
* CC(C)n1nnc(CC(=O)NCC2(c3ccccc3F)CCOCC2)n1 : 12.73%
* O=C(N1CCCC1)N1CC[C@H]2OCC[C@@]2(COc2ncccc2F)C1 : -1.718%
* CCC[C@H]1CN(CCCO)C[C@@H]1NC(=O)Cn1cc(C)cn1 : 8.824%
* CCc1ccc(C(=O)N2CCCC(c3nn[nH]n3)C2)cc1 (stereo not shown) : 8.906%
* CCOCC(=O)N1CCC2(CC1)CC(c1ccccc1)CO2 (stereo not shown) : 14.66%
* CCN(CC)C(=O)C(c1ccccc1)N1CCn2c(C)nnc2C1 (stereo not shown) : 16.56%
* O=S(=O)(NC1CCC12CCN(CC1CCOCC1)CC2)c1ccccc1 (stereo not shown) : 19.2%

For reference, 5 entries once more:

{"structure": "CN(Cc1ccco1)C[C@@H]1OC[C@H]2CN(Cc3nccs3)CC[C@H]21", "Inhibition": 4.301}
{"structure": "CN1CCN(C(=O)Cc2ccccn2)Cc2cccnc21", "Inhibition": 14.52}
{"structure": "Cc1nc(CN2CCN(C)C(=O)C23CCN(CC2CCCC2)CC3)cs1", "Inhibition": 10.99}
{"structure": "CC(=O)Oc1ccnc(C(F)(F)F)c1C(C)=O", "Inhibition": 12.03}
{"structure": "COCCNS(=O)(=O)c1c(C)sc2ccccc12", "Inhibition": 11.02}